PMC11005723, “Development of Complementary Photo‐arginine/lysine to Promote Discovery of Arg/Lys hPTMs Interactomes” (Advanced Science, 2024)
Further values from the same series stand in other lists.

System: HEK293T nuclear lysates
Assay: SILAC‐based pull‐down proteomics H4K5me2/H4K5 (probes 7/5)
Format: binding, human
Conditions: for E6 log2 (H4K5me2/H4K5): run E6; for F6 log2 (H4K5me2/H4K5): run F6
[1] = enriched protein ABCF1 (Q8NE71)
[2] = enriched protein AHCYL1 (O43865)
[3] = enriched protein ALDH18A1 (P54886)
[4] = enriched protein ALDOA (P04075)
[5] = enriched protein APEX1 (P27695)
[6] = enriched protein ATF7IP (Q6VMQ6)
[7] = enriched protein CCT6A (P40227)
[8] = enriched protein CELF1 (Q92879)
[9] = enriched protein CORO1B (Q9BR76)
[10] = enriched protein CSRP2 (Q16527)
[11] = enriched protein CSTF1 (Q05048)
[12] = enriched protein CSTF2 (E9PID8)
[13] = enriched protein DAZAP1 (K7EQ02)
[14] = enriched protein DDX1 (A0A087X2G1)
[15] = enriched protein DDX3X (A0A2R8Y5G6)
[16] = enriched protein DDX39A (O00148)
[17] = enriched protein DDX46 (A0A0C4DG89)
[18] = enriched protein DHX15 (O43143)
[19] = enriched protein EHMT2 (B0UZY3)
[20] = enriched protein EIF4A3 (P38919)
[21] = enriched protein EXOSC10 (Q01780)
[22] = enriched protein FAM120B (Q96EK7)
[23] = enriched protein FLNA (A0A087WWY3)
[24] = enriched protein FSCN1 (Q16658)
[25] = enriched protein FUBP1 (Q96AE4)
[26] = enriched protein GABPA (Q06546)
[27] = enriched protein GAPDH (E7EUT5)
[28] = enriched protein GNB2L1 (P63244)
[29] = enriched protein HNRNPA1 (F8VRQ1)
[30] = enriched protein HNRNPD (Q14103)
[31] = enriched protein HSPA9 (P38646)
[32] = enriched protein ILKAP (Q9H0C8)
[33] = enriched protein L3MBTL2 (Q969R5)
[34] = enriched protein LIMS1 (P48059)
[35] = enriched protein LRWD1 (Q9UFC0)
[36] = enriched protein MBTD1 (Q05BQ5)

## probe 7: H4K5me2 peptide probe with photo‐arginine R(dz) and K(biotin) (SGRGKGGKGLGKGGK; photo-arginine R(dz) at 3; dimethyl-lysine at 5; K(biotin) at 15)
[1]
  E6 log2 (H4K5me2/H4K5): 0.5648
  F6 log2 (H4K5me2/H4K5): -0.2191
Enriched protein ADD1 (E7EV99)
  E6 log2 (H4K5me2/H4K5): 1.022
  F6 log2 (H4K5me2/H4K5): 0.7863
[2]
  E6 log2 (H4K5me2/H4K5): 1.535
  F6 log2 (H4K5me2/H4K5): -0.3157
[3]
  E6 log2 (H4K5me2/H4K5): 0.4958
  F6 log2 (H4K5me2/H4K5): 0.07847
[4]
  E6 log2 (H4K5me2/H4K5): 0.6232
  F6 log2 (H4K5me2/H4K5): 0.6108
[5]
  E6 log2 (H4K5me2/H4K5): 0.5368
  F6 log2 (H4K5me2/H4K5): 0.4869
[6]
  E6 log2 (H4K5me2/H4K5): 1.496
  F6 log2 (H4K5me2/H4K5): -0.04952
Enriched protein CBX1 (P83916)
  E6 log2 (H4K5me2/H4K5): 3.0479
  F6 log2 (H4K5me2/H4K5): 2.61
Enriched protein CBX3 (Q13185)
  E6 log2 (H4K5me2/H4K5): 1.7014
  F6 log2 (H4K5me2/H4K5): 1.82
Enriched protein CBX5 (P45973)
  E6 log2 (H4K5me2/H4K5): 0.9439
  F6 log2 (H4K5me2/H4K5): 1.155
[7]
  E6 log2 (H4K5me2/H4K5): 0.6351
  F6 log2 (H4K5me2/H4K5): 0.5411
[8]
  E6 log2 (H4K5me2/H4K5): 0.6093
  F6 log2 (H4K5me2/H4K5): 0.3612
Enriched protein CNBP (P62633)
  E6 log2 (H4K5me2/H4K5): 0.7384
  F6 log2 (H4K5me2/H4K5): 0.485
[9]
  E6 log2 (H4K5me2/H4K5): 0.5137
  F6 log2 (H4K5me2/H4K5): 0.2992
Enriched protein CSK (P41240)
  E6 log2 (H4K5me2/H4K5): 0.6969
  F6 log2 (H4K5me2/H4K5): -0.06659
[10]
  E6 log2 (H4K5me2/H4K5): 1.263
  F6 log2 (H4K5me2/H4K5): 0.771
[11]
  E6 log2 (H4K5me2/H4K5): 0.8653
  F6 log2 (H4K5me2/H4K5): 0.6447
[12]
  E6 log2 (H4K5me2/H4K5): 0.7798
  F6 log2 (H4K5me2/H4K5): 0.3906
Enriched protein CUL3 (Q13618)
  E6 log2 (H4K5me2/H4K5): 0.4204
  F6 log2 (H4K5me2/H4K5): 0.1959
Enriched protein CYCS (C9JFR7)
  E6 log2 (H4K5me2/H4K5): 0.793
  F6 log2 (H4K5me2/H4K5): 0.7226
[13]
  E6 log2 (H4K5me2/H4K5): 0.8675
  F6 log2 (H4K5me2/H4K5): 1.092
[14]
  E6 log2 (H4K5me2/H4K5): 0.7443
  F6 log2 (H4K5me2/H4K5): 0.8493
[15]
  E6 log2 (H4K5me2/H4K5): 0.8699
  F6 log2 (H4K5me2/H4K5): 0.1194
Enriched protein DDX5 (J3KTA4)
  E6 log2 (H4K5me2/H4K5): 0.5003
  F6 log2 (H4K5me2/H4K5): 0.5059
[16]
  E6 log2 (H4K5me2/H4K5): 0.482
  F6 log2 (H4K5me2/H4K5): 0.5893
[17]
  E6 log2 (H4K5me2/H4K5): 0.6833
  F6 log2 (H4K5me2/H4K5): 0.6003
[18]
  E6 log2 (H4K5me2/H4K5): 0.4402
  F6 log2 (H4K5me2/H4K5): 0.4387
Enriched protein DIS3 (Q9Y2L1)
  E6 log2 (H4K5me2/H4K5): 0.4109
  F6 log2 (H4K5me2/H4K5): 0.3569
[19]
  E6 log2 (H4K5me2/H4K5): 0.4681
  F6 log2 (H4K5me2/H4K5): 0.2418
[20]
  E6 log2 (H4K5me2/H4K5): 0.8737
  F6 log2 (H4K5me2/H4K5): 0.5817
Enriched protein ENO1 (P06733)
  E6 log2 (H4K5me2/H4K5): 0.528
  F6 log2 (H4K5me2/H4K5): 0.4207
[21]
  E6 log2 (H4K5me2/H4K5): 0.5551
  F6 log2 (H4K5me2/H4K5): -0.002284
[22]
  E6 log2 (H4K5me2/H4K5): 1.788
  F6 log2 (H4K5me2/H4K5): 0.0239
Enriched protein FHL1 (Q5JXI8)
  E6 log2 (H4K5me2/H4K5): 0.7221
  F6 log2 (H4K5me2/H4K5): 0.5443
[23]
  E6 log2 (H4K5me2/H4K5): 0.4728
  F6 log2 (H4K5me2/H4K5): 0.5364
[24]
  E6 log2 (H4K5me2/H4K5): 1.428
  F6 log2 (H4K5me2/H4K5): 0.715
[25]
  E6 log2 (H4K5me2/H4K5): 0.6224
  F6 log2 (H4K5me2/H4K5): 0.5295
Enriched protein FUS (P35637)
  E6 log2 (H4K5me2/H4K5): 0.4011
  F6 log2 (H4K5me2/H4K5): 0.4725
[26]
  E6 log2 (H4K5me2/H4K5): 0.6937
  F6 log2 (H4K5me2/H4K5): 0.2833
[27]
  E6 log2 (H4K5me2/H4K5): 0.4479
  F6 log2 (H4K5me2/H4K5): 0.4342
Enriched protein GDI2 (P50395)
  E6 log2 (H4K5me2/H4K5): 0.6366
  F6 log2 (H4K5me2/H4K5): 0.1649
[28]
  E6 log2 (H4K5me2/H4K5): 0.611
  F6 log2 (H4K5me2/H4K5): 0.701
[29]
  E6 log2 (H4K5me2/H4K5): 0.4124
  F6 log2 (H4K5me2/H4K5): 0.316
[30]
  E6 log2 (H4K5me2/H4K5): 0.5489
  F6 log2 (H4K5me2/H4K5): 0.4363
[31]
  E6 log2 (H4K5me2/H4K5): 0.6734
  F6 log2 (H4K5me2/H4K5): 0.7184
[32]
  E6 log2 (H4K5me2/H4K5): 0.7238
  F6 log2 (H4K5me2/H4K5): 0.434
Enriched protein IPO4 (Q8TEX9)
  E6 log2 (H4K5me2/H4K5): 0.5564
  F6 log2 (H4K5me2/H4K5): 0.1492
[33]
  E6 log2 (H4K5me2/H4K5): 3.755
  F6 log2 (H4K5me2/H4K5): 2.747
Enriched protein LBR (Q14739)
  E6 log2 (H4K5me2/H4K5): 0.5192
  F6 log2 (H4K5me2/H4K5): 0.1873
Enriched protein LDHA (P00338)
  E6 log2 (H4K5me2/H4K5): 0.6185
  F6 log2 (H4K5me2/H4K5): 0.5762
[34]
  E6 log2 (H4K5me2/H4K5): 0.65
  F6 log2 (H4K5me2/H4K5): 0.1802
[35]
  E6 log2 (H4K5me2/H4K5): 0.5163
  F6 log2 (H4K5me2/H4K5): 0.6122
[36]
  E6 log2 (H4K5me2/H4K5): 0.5559
  F6 log2 (H4K5me2/H4K5): 0.7084
Enriched protein MCM5 (P33992)
  E6 log2 (H4K5me2/H4K5): 0.4259
  F6 log2 (H4K5me2/H4K5): 0.4016
Enriched protein MDH2 (P40926)
  E6 log2 (H4K5me2/H4K5): 0.6003
  F6 log2 (H4K5me2/H4K5): 0.5962
Enriched protein MIF (P14174)
  E6 log2 (H4K5me2/H4K5): 0.4968
